From PubChem BioAssay AID1671190 (National Center for Advancing Translational Sciences (NCATS), 2021)
Several values for one entry are separate records, joined by “and”; a condition that tells them apart may be missing. Equal values may be shown once. Hit rate of the full screen: of about 580,000 compounds, about 6,100 (1.1%) were called active. Inconclusive means that the source gave no clear call. Such entries were picked first, then a sample of the others. Calls come from the whole dose curve; as a rule, active = well fitted inhibition curve with a large enough effect; inconclusive = small, poorly fitted or top-dose-only effect, or another doubt; inactive = no such curve, though single readings can be large or run the other way. Potencies of inconclusive entries are doubtful fits and often do not repeat.

Protein sequences, listed by entry. Tags and fused reporters are not part of them.
UniProt P18054, whole entry, looked up: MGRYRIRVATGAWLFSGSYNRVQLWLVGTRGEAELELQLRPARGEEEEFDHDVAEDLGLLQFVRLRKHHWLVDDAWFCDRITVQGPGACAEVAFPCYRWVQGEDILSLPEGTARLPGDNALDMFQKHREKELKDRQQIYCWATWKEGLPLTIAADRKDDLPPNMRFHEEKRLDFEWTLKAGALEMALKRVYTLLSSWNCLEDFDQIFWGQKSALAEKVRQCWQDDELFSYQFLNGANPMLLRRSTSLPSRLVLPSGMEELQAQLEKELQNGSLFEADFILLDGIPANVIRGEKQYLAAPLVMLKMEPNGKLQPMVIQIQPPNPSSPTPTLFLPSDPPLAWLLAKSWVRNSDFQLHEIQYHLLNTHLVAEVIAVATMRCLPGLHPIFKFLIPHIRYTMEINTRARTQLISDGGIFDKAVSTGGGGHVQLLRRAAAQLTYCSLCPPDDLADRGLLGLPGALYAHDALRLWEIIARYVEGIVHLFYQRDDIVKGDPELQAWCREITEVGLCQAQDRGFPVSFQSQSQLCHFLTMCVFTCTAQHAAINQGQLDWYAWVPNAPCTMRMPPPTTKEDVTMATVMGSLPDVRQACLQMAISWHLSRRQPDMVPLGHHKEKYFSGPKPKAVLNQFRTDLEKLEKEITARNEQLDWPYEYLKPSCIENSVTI

Target: Polyunsaturated fatty acid lipoxygenase ALOX12 (Homo sapiens) (UniProt P18054)
Assay: Primary qHTS assay for inhibitors of human arachidonate 12S-lipoxygenase (ALOX12): Round 2
Details: purified 12hLO, xylenol orange hydroperoxide absorbance; series mostly up to 108 µM
In short: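 Hydroperoxide product was detected by ferrous iron/xylenol orange as the 573 to 405 nm absorbance ratio. Arachidonic acid at 40 uM (final) was turned over for 30 min at room temperature by 150 nM human 12hLO, pH 7.0 Hepes buffer, after 15 min compound preincubation.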
Potency is the fitted concentration of half-maximal effect.

Structure (SMILES)	Potency
COc1ccc(CC(=O)NC2CCN(Cc3nnnn3C(C)(C)C)CC2)cc1OC	inconclusive: 0.316 µM [inhibitor, full curve, poor fit]
COCCNc1ncnc2ccc(-c3ccccc3OC)cc12	inconclusive: 31.6 µM [inhibitor, partial curve]
COC(=O)c1cccc(NC(=O)Nc2ccc(Cl)cc2Cl)c1	inconclusive: 112 µM [inhibitor, partial curve, poor fit]
COc1ccccc1NC(=O)N1CCCC1C(=O)NCc1ccccc1 (configuration not stated)	inconclusive: 0.0794 µM [inhibitor, full curve, poor fit]
CC(C)(C)OC(=O)C[C@@H]1C/C=C\C[C@@H](CC(=O)N[C@@H](CO)Cc2ccccc2)C(=O)N2CCC[C@@H]2COC1=O	inconclusive: 0.447 µM [inhibitor, full curve, poor fit]
CCOC(=O)N1CCN(C(=O)c2ccc(C)c(S(=O)(=O)N3CCCCC3)c2)CC1	inactive
COc1ccc(C)cc1NC(=O)C1CCN(S(=O)(=O)c2ccc3[nH]c4c(c3c2)CCCCC4)CC1	inconclusive: 141 µM [inhibitor, partial curve, poor fit]
Cc1cc(=O)[nH]c(/N=C(\N)Nc2ccc3c(c2)OCCO3)n1	inconclusive: 6.31 µM [inhibitor, full curve, poor fit]
O=C(CSc1cn(Cc2ccc(F)cc2)c2ccccc12)N1CCCCC1	inconclusive: 112 µM [inhibitor, partial curve, poor fit]
C=C(CN(C)C)C(=O)c1cc(C)ccc1C	inconclusive: 44.7 µM [inhibitor, partial curve, poor fit]
CCNC(=O)[C@@H]1C[C@H](n2cc(CN(C)C(=O)Nc3ccc(C)cc3)nn2)CN1	inconclusive: 3.55 µM [inhibitor, full curve]
O=C(c1cc(-c2ccc(Cl)cc2)n(-c2cc(Cl)ccc2Cl)n1)N1CCOCC1	inconclusive: 3.98 µM [inhibitor, full curve, poor fit]
CCOc1cc(N2CCOCC2)c(OCC)cc1NC(=O)C1CC(=O)N(c2ccccc2OCC)C1 (configuration not stated)	inconclusive: 35.5 µM [inhibitor, single point]
COc1cc(-c2coc3c(C(=O)NC4CCCCC4)cccc23)ccc1O	inconclusive: 44.7 µM [inhibitor, partial curve, poor fit]
Cc1ccc(S(=O)(=O)Nc2nc3ccccc3nc2Nc2cccc(C(=O)O)c2)cc1	inconclusive: 7.94 µM [inhibitor, full curve, poor fit]
CC(=O)N1CCN(C(=O)c2sc(-c3ccc(OC(F)(F)F)cc3)nc2C)CC1	inconclusive: 0.316 µM [inhibitor, full curve, poor fit]
COc1cc2c(cc1OC)C(c1ccc(N(C)C)cc1)CC(=O)N2 (configuration not stated)	inactive
CC(=O)c1cccc(NC(=O)CSc2nc(=O)n(Cc3cccnc3)c3c2CCC3)c1	inactive
Oc1c(C(c2ccccc2F)N2CCCCC2)sc2nc(-c3ccco3)nn12 (configuration not stated)	inconclusive: 63.1 µM [inhibitor, partial curve, poor fit]
COc1ccc(CN2CCC3(C2)C(=O)Nc2ccccc23)cc1 (configuration not stated)	inconclusive: 112 µM [inhibitor, single point]
CC(/C=C/c1ccco1)=N/NC(=O)c1ccc(C)nc1	inactive

Structure (SMILES)	Potency
Cc1[nH]c(=O)c(C#N)c(C)c1Cl	inconclusive: 141 µM [inhibitor, single point]
COc1cc(NC(=O)c2ccccc2)c(OC)cc1NC(=O)Cc1cccs1	inconclusive: 50.1 µM [inhibitor, partial curve, poor fit]
CCC(=O)Nc1cccc(-c2nnc(SCC(=O)NCc3ccco3)n2C)c1	inconclusive: 0.631 µM [inhibitor, full curve, poor fit]
Cc1c(C(=O)N2CCC(C)CC2)c(S(=O)(=O)NCc2ccc(Br)cc2)c(C)n1C	inconclusive: 126 µM [inhibitor, partial curve, poor fit]
O=c1[nH][nH]c2c1C(C1CCCCC1)OC(C1CCCCC1)C2 (configuration not stated)	inactive
CCCCc1nc2ccccc2n2c(-c3ccc(OC)cc3)c3c(=O)n(C)c(=O)n(C)c3c12	inconclusive: 5.01 µM [inhibitor, partial curve, poor fit]
CCOC(=O)c1ccc(/C=C/c2ccccn2)cc1	inconclusive: 63.1 µM [inhibitor, partial curve, poor fit]
Cc1ccc(N(CC(=O)N=Nc2c(O)[nH]c3ccccc23)S(C)(=O)=O)c(C)c1	inactive
CC(C)(C)Cc1c(-c2ccc(F)cc2)nc2ccc(Cl)cn12	inconclusive: 39.8 µM [inhibitor, partial curve, poor fit]
O=C(CCn1nnc2ccccc21)OCC(=O)c1ccccc1	inconclusive: 5.62 µM [inhibitor, full curve, poor fit]
COc1cccc(C(C)(O)c2nc(-c3cc4ccccc4o3)cs2)c1 (configuration not stated)	inconclusive: 70.8 µM [inhibitor, partial curve, poor fit]
COc1ccc(CCn2c(SCC(C)C)nc3c2c(=O)n(C)c(=O)n3C)cc1	inactive
Cc1ccc(-c2nc(NC(=O)c3ccc(S(=O)(=O)N(CCC#N)CCC#N)cc3)sc2-c2ccccc2)cc1	inconclusive: 79.4 µM [inhibitor, partial curve, poor fit]
Cc1ccccc1Nc1c(-c2ccc(Cl)s2)nc2c(C)cccn12	inconclusive: 126 µM [inhibitor, partial curve, poor fit]
CC1CCCCN1S(=O)(=O)c1ccc(C(=O)Nc2ccccc2-c2nc3ccccc3[nH]2)cc1 (configuration not stated)	inactive
Cc1nc2sccn2c(=O)c1CCN1CCC(=C(c2ccc(F)cc2)c2ccc(F)cc2)CC1	inconclusive: 100 µM [inhibitor, single point] and inconclusive: 50.1 µM [inhibitor, partial curve, poor fit]
COc1ccc2[nH]c(=O)c(CNc3cc(C)ccc3C)cc2c1	inactive
CC(C)CN(C(=O)C1=COCCO1)c1c(N)n(Cc2ccccc2)c(=O)[nH]c1=O	inconclusive: 100 µM [inhibitor, single point]
Cc1ccc(S(=O)(=O)Nc2nc3c(s2)C[C@]2(C)CC[C@@H]4[C@H](OC(=O)[C@H]4C)[C@H]2[C@@H]3C)cc1	inconclusive: 28.2 µM [inhibitor, full curve]
Cc1nc2ccc(NC(=O)c3ccc(S(=O)(=O)N(C)C)cc3)cc2s1	inactive
O=C(CC(O)(c1ccccc1)C(F)(F)C(F)F)c1cccs1 (configuration not stated)	inactive

Structure (SMILES)	Potency
O=C(C[C@H]1C/C=C\C[C@H](NC(=O)OCC2c3ccccc3-c3ccccc32)C(=O)OC[C@H](Cc2ccccc2)NC1=O)N[C@H](CO)Cc1ccccc1	inconclusive: 50.1 µM [inhibitor, partial curve, poor fit]
COc1ccc([C@H]2C[C@@H](O)[C@@H](O)[C@@H]2NCc2ccc(Cl)cc2)cc1	inconclusive: 50.1 µM [inhibitor, partial curve]
O=C(NCCc1ccc(Cl)cc1)c1cccn1-c1nnc(N2CCCCC2)s1	inconclusive: 100 µM [inhibitor, partial curve, poor fit]
COc1ccc(/C=N/NC(=O)CN2CCSCC2)c(OC)c1	inconclusive: 1.41 µM [inhibitor, full curve, poor fit]
CC(Cl)C(=O)c1ccc2c(c1)CCN2C(=O)C1CC1 (configuration not stated)	inactive
CCCOc1ccccc1C(=O)N(Cc1ccc(C)cc1)C1CCS(=O)(=O)C1 (configuration not stated)	inconclusive: 50.1 µM [inhibitor, single point]
Cc1cccc(NS(=O)(=O)c2cccc(C(=O)N3CCCCCC3)c2)c1	inactive
CCOc1ccc(-c2nc(CNC(=O)Nc3ccc(C)c(Cl)c3)c(C)o2)cc1	inconclusive: 89.1 µM [inhibitor, single point]
COc1ccc(-c2csc3ncnc(N4CCN(c5ccc(OC)cc5)CC4)c23)cc1	inactive
F[C@@H]1CN(CC2CC2)C[C@@H]1OCc1nc2ccccc2o1	inconclusive: 141 µM [inhibitor, single point]
Cc1ccc(N2C(=O)C3CCCN3C2=S)cc1Cl (configuration not stated)	inconclusive: 31.6 µM [inhibitor, single point]
O=c1cc(CO)oc(CN2CCN(c3cccc(C(F)(F)F)c3)CC2)c1O	active: 1.41 µM
Cn1ccnc1CN1CCN(CC2(O)CNCCOC2)CC1 (configuration not stated)	inactive
CCNC(=O)OC[C@H]1O[C@H](C#Cc2ccc(C(C)(C)C)cc2)C=C[C@H]1OC(C)=O	inconclusive: 39.8 µM [inhibitor, partial curve]
CC(C)c1cc(C(=O)NC(C2CC2)C2CC2)c2cnn(C(C)C)c2n1	inconclusive: 100 µM [inhibitor, partial curve, poor fit]
O=S1(=O)N[C@H](Cc2ccccc2)COc2cccc(NCCO)c21	inconclusive: 89.1 µM [inhibitor, single point]
CNc1nccc(N2CCC(CC(=O)NCCCN(C)C)CC2)n1	inactive
CC(C)C(NC(=O)c1ccccc1)C(=O)OCc1cc([N+](=O)[O-])cc2c1OCOC2 (configuration not stated)	inactive
Cc1ccc(NC(=O)CN2CCN(Cc3ccccc3)CC2)c(Br)c1	inconclusive: 7.94 µM [inhibitor, full curve]
COC(=O)C1=C(C)N(Cc2cccc(C(F)(F)F)c2)C(=NCc2ccc(C(F)(F)F)cc2)NC1c1cccc(F)c1 (configuration not stated)	inconclusive: 44.7 µM [inhibitor, partial curve, poor fit]

Another view of some results above:
Structure (SMILES),Potency
O=C(CSc1cn(Cc2ccc(F)cc2)c2ccccc12)N1CCCCC1,"inconclusive: 112 µM [inhibitor, partial curve, poor fit]"
CC(=O)N1CCN(C(=O)c2sc(-c3ccc(OC(F)(F)F)cc3)nc2C)CC1,"inconclusive: 0.316 µM [inhibitor, full curve, poor fit]"
